Test results reported in PubChem BioAssay AID256 (DTP/NCI, 2004).
The list does not hold the whole screen: it gathers tests that were run many times, whatever their T/C, doses with no T/C, and many T/C values between a quarter and a half above the control. Other doses and runs of a compound stand elsewhere. T/C gives the treated animals as a percentage of the vehicle group. Some doses have a count of surviving animals in place of a T/C: the source holds a T/C of zero for them, seemingly a mark for toxic or unscored doses. Some doses without a T/C left all or most animals alive at the check, yet need not have been tolerated: survival well below the control is almost never listed, so the zero probably covers shortened survival too. Survivors were counted at the toxicity check, usually on the fifth day, unless a day is given; later deaths do not show. Schedules are NCI's codes, taken here to give the interval after Q, in days (D) or hours (H), and the number of doses after X. Some entries hold several experiments; the values are given in rising order. For survival time, the PubChem record calls one and a half times the control and up active, and a quarter to a half above the control has no call in these data; cut-offs in other NCI protocols can differ. Some T/C values carry the count of animals alive at the toxicity check (mostly the fifth day); without a count, all were alive then.

Tested on: CD2F1 mice, L1210 leukemia ip, survival T/C
Assay: NCI In Vivo Anticancer Drug Screen. Data for tumor model L1210 Leukemia (intraperitoneal) in CD2F1 (CDF1) mice
Conditions: higher T/C = longer survival
Summary of the method: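 Ratio T/C, where T is the treated-group value and C the vehicle-dosed control value, from mice implanted with a transplantable tumor.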

[1] = T/C endpoint: mean survival time, dose: 200.0 mg/kg/injection, schedule: Q01DX009 (ip), vehicle: saline with Tween-80
[2] = T/C endpoint: mean survival time, dose: 400.0 mg/kg/injection, schedule: Q01DX009 (ip), vehicle: saline with Tween-80
[3] = T/C endpoint: mean survival time, dose: 400.0 mg/kg/injection, schedule: Q04DX003 (ip), vehicle: saline with Tween-80
[4] = T/C endpoint: mean survival time, dose: 1.56 mg/kg/injection, schedule: Q01DX009 (ip), vehicle: saline with Tween-80
[5] = T/C endpoint: mean survival time, dose: 3.13 mg/kg/injection, schedule: Q01DX009 (ip), vehicle: saline with Tween-80
[6] = T/C endpoint: mean survival time, dose: 200.0 mg/kg/injection, schedule: Q01DX009 (ip), vehicle: saline

SMILES: O=P1(NCCCl)OCCCN1CCCl (centres undefined)
- T/C (T/C endpoint: mean survival time, dose: 50.0 mg/kg/injection, schedule: Q01DX001 (ip), vehicle: DMSO): 127 % of control
- T/C (T/C endpoint: mean survival time, dose: 100.0 mg/kg/injection, schedule: Q01DX001 (ip), vehicle: saline): 128 % of control
- survivor count (T/C endpoint: median survival time, dose: 500.0 mg/kg/injection, schedule: Q01DX001 (ip), vehicle: water): 2 of 8

SMILES: COc1cccc2c1C(=O)c1c(O)c3c(c(O)c1C2=O)C[C@@](O)(/C(C)=N/NC(=O)c1ccc(-c2ccccc2)cc1)C[C@@H]3OC1CC(N)C(O)C(C)O1 (some centres undefined)
- T/C (T/C endpoint: mean survival time, dose: 0.5 mg/kg/injection, schedule: Q01DX009 (ip), vehicle: water): 139 % of control
- T/C (T/C endpoint: mean survival time, dose: 1.0 mg/kg/injection, schedule: Q01DX009 (ip), vehicle: water): 131 % of control [5 of 6 alive]
- T/C (T/C endpoint: mean survival time, dose: 2.0 mg/kg/injection, schedule: Q01DX009 (ip), vehicle: water): 125 % of control

SMILES: Clc1ccc2nnnn2n1
- survivor count [1]: 3 of 6
- survivor count [2]: 0 of 6 and 2 of 6
- survivor count (T/C endpoint: median survival time, dose: 400.0 mg/kg/injection, schedule: Q01DX009 (ip), vehicle: saline with Tween-80): 1 of 6 and 3 of 6

SMILES: Nc1ncnc2c1nc(Cl)n2C1OC2COP(=O)(O)OC2C1O (centres undefined)
- survivor count (T/C endpoint: mean survival time, dose: 100.0 mg/kg/injection, schedule: Q01DX005 (ip), vehicle: water): 1 of 3
- survivor count (T/C endpoint: mean survival time, dose: 200.0 mg/kg/injection, schedule: Q01DX005 (ip), vehicle: water): 0 of 3

SMILES: Nc1nc(N)c2nc(COc3ccc(C(=O)NC(CCC(=O)O)C(=O)O)cc3)cnc2n1 (centres undefined)
- T/C (T/C endpoint: mean survival time, dose: 0.38 mg/kg/injection, schedule: Q01DX009 (ip), vehicle: sodium bicarbonate): 125 % of control
- T/C (T/C endpoint: mean survival time, dose: 0.75 mg/kg/injection, schedule: Q01DX009 (ip), vehicle: sodium bicarbonate): 143 % of control
- T/C (T/C endpoint: mean survival time, dose: 1.5 mg/kg/injection, schedule: Q01DX009 (ip), vehicle: saline with Tween-80): 126 % of control
- survivor count (T/C endpoint: mean survival time, dose: 6.0 mg/kg/injection, schedule: Q01DX009 (ip), vehicle: saline with Tween-80): 6 of 6

SMILES: O=Cc1ccccc1O.O=Cc1ccccc1O.O=Cc1ccccc1O.[La]
- survivor count [3]: 5 of 6

SMILES: Nc1ccc(NC(=S)Nc2ccc(N)cc2)cc1
- survivor count (T/C endpoint: mean survival time, dose: 100.0 mg/kg/injection, schedule: Q04DX003 (ip), vehicle: Klucel (hydroxypropylcellulose) (HPC)): 5 of 6
- survivor count (T/C endpoint: mean survival time, dose: 200.0 mg/kg/injection, schedule: Q04DX003 (ip), vehicle: Klucel (hydroxypropylcellulose) (HPC)): 4 of 6
- survivor count (T/C endpoint: mean survival time, dose: 400.0 mg/kg/injection, schedule: Q04DX003 (ip), vehicle: Klucel (hydroxypropylcellulose) (HPC)): 1 of 6

SMILES: O=C(CCl)NCCCNC(=O)CCl
- survivor count (T/C endpoint: mean survival time, dose: 200.0 mg/kg/injection, schedule: Q04DX003 (ip), vehicle: saline with Tween-80): 0 of 6
- survivor count [3]: 0 of 6

SMILES: CCCCCCCC(=O)Nc1ncnc2c1ncn2C1OC(COC(C)=O)C(OC(C)=O)C1OC(C)=O (centres undefined)
- survivor count (T/C endpoint: mean survival time, dose: 200.0 mg/kg/injection, schedule: Q01DX005 (ip), vehicle: distilled water + Tween-80): 1 of 6

SMILES: Cc1cc(/C=C/c2ccc3cc(N(C)C)ccc3[n+]2C)c(C)n1-c1ccccc1
- T/C (T/C endpoint: mean survival time, dose: 0.39 mg/kg/injection, schedule: Q01DX009 (ip), vehicle: saline with Tween-80): 133 % of control
- T/C (T/C endpoint: mean survival time, dose: 0.78 mg/kg/injection, schedule: Q01DX009 (ip), vehicle: saline with Tween-80): 133 % of control
- T/C [4]: 127 % of control
- survivor count [4]: 1 of 6
- T/C [5]: 130 % of control
- survivor count [5]: 0 of 6
- survivor count (T/C endpoint: mean survival time, dose: 100.0 mg/kg/injection, schedule: Q01DX009 (ip), vehicle: saline with Tween-80): 0 of 6
- survivor count [1]: 0 of 6
- survivor count [2]: 0 of 6

SMILES: CC1CC[N+](C)(CC(=O)c2ccc(-c3ccc(C(=O)C[N+]4(C)CCC(C)CC4)cc3)cc2)CC1 (centres undefined)
- survivor count (T/C endpoint: mean survival time, dose: 0.16 mg/kg/injection, schedule: Q04DX003 (ip), vehicle: Klucel (hydroxypropylcellulose) (HPC)): 1 of 6
- survivor count (T/C endpoint: mean survival time, dose: 0.31 mg/kg/injection, schedule: Q04DX003 (ip), vehicle: Klucel (hydroxypropylcellulose) (HPC)): 0 of 6
- survivor count (T/C endpoint: mean survival time, dose: 0.62 mg/kg/injection, schedule: Q04DX003 (ip), vehicle: Klucel (hydroxypropylcellulose) (HPC)): 0 of 6
- survivor count (T/C endpoint: mean survival time, dose: 1.25 mg/kg/injection, schedule: Q04DX003 (ip), vehicle: Klucel (hydroxypropylcellulose) (HPC)): 0 of 6

SMILES: CCCCCCC#CC(O)CC (centres undefined)
- survivor count [1]: 1 of 3

SMILES: CCCCCCCCCCCCCC[N+]1(C)CCC[N+](C)(CCCCCCCCCCCCCC)CC1 (centres undefined)
- survivor count (T/C endpoint: mean survival time, dose: 400.0 mg/kg/injection, schedule: Q04DX003 (ip), vehicle: other): 3 of 6

SMILES: C1=C\C[n+]2ccccc2-c2cccc[n+]2C/1
- survivor count (T/C endpoint: mean survival time, dose: 30.0 mg/kg/injection, schedule: Q04DX003 (ip), vehicle: saline): 2 of 6

SMILES: [C-]#[N+]C(C)(CC)c1ccccc1 (centres undefined)
- survivor count (T/C endpoint: mean survival time, dose: 55.0 mg/kg/injection, schedule: Q01DX009 (ip), vehicle: saline with Tween-80): 1 of 6
- survivor count (T/C endpoint: mean survival time, dose: 80.0 mg/kg/injection, schedule: Q01DX009 (ip), vehicle: saline with Tween-80): 0 of 6

SMILES: Nc1nc(S)c(N)c(=S)[nH]1
- survivor count (T/C endpoint: mean survival time, dose: 150.0 mg/kg/injection, schedule: Q01DX001 (ip), vehicle: carboxymethylcellulose (CMC)): 0 of 6
- survivor count (T/C endpoint: mean survival time, dose: 300.0 mg/kg/injection, schedule: Q01DX001 (ip), vehicle: carboxymethylcellulose (CMC)): 0 of 6

SMILES: Cc1ncc(COP(=O)(O)O)c(C=NC(C)C(=O)O)c1O.O.[Cu] (centres undefined)
- survivor count (T/C endpoint: mean survival time, dose: 100.0 mg/kg/injection, schedule: Q01DX001 (ip), vehicle: saline with Tween-80): 0 of 3
- survivor count (T/C endpoint: mean survival time, dose: 200.0 mg/kg/injection, schedule: Q01DX001 (ip), vehicle: saline with Tween-80): 0 of 3
- survivor count (T/C endpoint: mean survival time, dose: 400.0 mg/kg/injection, schedule: Q01DX001 (ip), vehicle: saline with Tween-80): 0 of 3

SMILES: CCCCCCCCCCCCCCCCCC[n+]1ccc(C(=O)c2ccccc2)cc1
- survivor count (T/C endpoint: mean survival time, dose: 37.5 mg/kg/injection, schedule: Q01DX001 (ip), vehicle: other): 3 of 6

SMILES: COc1cc2c(cc1OC)CCN=C2
- survivor count [6]: 0 of 3

SMILES: COc1ccc(NC(=O)Nc2c(Oc3ccc(Cl)cc3)ccc(Cl)c2S(=O)(=O)O)cc1Cl
- survivor count [6]: 2 of 6
- survivor count [3]: 0 of 6
